Taken from: PubChem BioAssay AID1259254 (NCATS, 2017)

Assay: 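Finding genes that stop cells copying their DNA twice in one cycle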 (primary screen)
Cells: human HCT116 colorectal cancer cells
Reagents: single siRNA against human genes
Time to read-out: 3 days
Detection: 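Nuclei stained with Hoechst and imaged; cell-cycle phase assigned by DNA content; G2 share scaled per plate, non-targeting siRNA 0%, GMNN siRNA 100%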
Reading the numbers: G2 robust z-score and G2 cells, % of GMNN control: higher = more G2 cells, more excess DNA replication
Call rule: 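An siRNA counts as active if its G2 robust z-score lies at least 5 MADs above the screen median; here such calls match roughly 38% of GMNN control or more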
The deposit covers about 59,000 reagents; below is a part drawn at random. Over the whole deposit, about 1,550 (2.6%) got an active call. 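G2 share is only a proxy for re-replication; each gene was hit by three separate siRNAs, and active genes were retested.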 The numbers tell different reagents against one gene apart. Further read-outs or replicates are left out here. Not given: the amount of reagent.

Depletion of TMEM51 #1 resulted in: G2 robust z-score -0.18; G2 cells, % of GMNN control 1.7; inactive.
Depletion of TMEM51 #2 came out at: G2 robust z-score 1.13; G2 cells, % of GMNN control 10.9; inactive.
TMEM51 #3 gave G2 robust z-score -0.316; G2 cells, % of GMNN control 0.743; inactive.
After knock-down of PVALB #1 the results were G2 robust z-score -0.565; G2 cells, % of GMNN control -1.01; inactive.
PVALB #2 gave G2 robust z-score -0.493; G2 cells, % of GMNN control -0.499; inactive.
For PVALB #3 the deposit lists G2 robust z-score -0.333; G2 cells, % of GMNN control 0.628; inactive.
Silencing of ILDR1 #1 gave: G2 robust z-score 4.05; G2 cells, % of GMNN control 31.5; inactive.
ILDR1 #2 scored G2 robust z-score -0.318; G2 cells, % of GMNN control 0.727; inactive.
After knock-down of ILDR1 #3, the record shows G2 robust z-score -0.432; G2 cells, % of GMNN control -0.0744; inactive.

3 entries from above, reformatted:
Gene	reagent no.	G2 robust z-score	G2 cells, % of GMNN control	activity call
TMEM51	3	-0.316	0.743	inactive
PVALB	1	-0.565	-1.01	inactive
PVALB	2	-0.493	-0.499	inactive

Continued.
ATAD5 #1 gave G2 robust z-score 0.524; G2 cells, % of GMNN control 6.66; inactive.
Silencing of ATAD5 #2 resulted in: G2 robust z-score 0.289; G2 cells, % of GMNN control 5; inactive.
With knock-down of ATAD5 #3, the screen gave G2 robust z-score 0.603; G2 cells, % of GMNN control 7.21; inactive.
Silencing of SP5 #1 gave: G2 robust z-score 0.66; G2 cells, % of GMNN control 7.61; inactive.
With knock-down of SP5 #2, the record shows G2 robust z-score -0.226; G2 cells, % of GMNN control 1.38; inactive.
Knock-down of SP5 #3 resulted in: G2 robust z-score -0.725; G2 cells, % of GMNN control -2.13; inactive.
For MED4 #1 the deposit lists G2 robust z-score -0.705; G2 cells, % of GMNN control -1.99; inactive.
With knock-down of MED4 #2, the screen gave G2 robust z-score -1.02; G2 cells, % of GMNN control -4.21; inactive.
Depletion of MED4 #3 came out at: G2 robust z-score -0.0269; G2 cells, % of GMNN control 2.78; inactive.
For LOC729696 (retired record) #1, the values are G2 robust z-score -0.592; G2 cells, % of GMNN control -1.2; inactive.
For LOC729696 (retired record) #2, the entry reads G2 robust z-score 1.46; G2 cells, % of GMNN control 13.3; inactive.
For LOC729696 (retired record) #3 the deposit lists G2 robust z-score -0.998; G2 cells, % of GMNN control -4.06; inactive.
After knock-down of HNRNPL #1, the screen gave G2 robust z-score 0.543; G2 cells, % of GMNN control 6.79; inactive.
After knock-down of HNRNPL #2, the screen gave G2 robust z-score -0.318; G2 cells, % of GMNN control 0.729; inactive.
HNRNPL #3 scored G2 robust z-score 7.42; G2 cells, % of GMNN control 55.2; active.
